US9592218B2, “Reverse micelle system comprising metal ions and use thereof” (MEDESIS PHARMA, priority 2010, dated 2017)
At least one compound was matched to its structure with a doubt left.

System: behavioural mice model of depression
Assay: Behavioural mice model of depression (tail suspension test)
Type: in vivo, C57b1/6 mice
Settings: 16 mg/kg oral gavage, 4 weeks, 6 min tail suspension

SMILES: [Li] [lithium in solution]
- time of immobility compared to empty reverse micelles: significantly lower
